Data taken from the supplement of paper PMC10626197.

Tested on: MCF7
Assay: cell viability relative to DMSO control (raw); higher = more viable cells
Conditions: exposure time 72 h
Procedure: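 MCF7 cells, 1000 cells/well in 384-well plates, treated with 6x6 dose matrices of drug pairs (1:3 serial dilutions, DMSO as lowest dose) for 72 h at 37 °C. Viability read by CellTiter-Glo luminescence, 3 biological replicates. Normalised viability sets 0% at the highest doxorubicin dose and 100% at the 0,0 µM control per combination.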

Cc1ccc(Nc2nccc(N(C)c3ccc4c(C)n(C)nc4c3)n2)cc1S(N)(=O)=O [Pazopanib] + CN1CCN(CCCN2c3ccccc3Sc3ccc(C(F)(F)F)cc32)CC1 [Trifluoperazine 2HCl]
cell viability [%]
Conditions | drug 2 concentration 0 µM | drug 2 concentration 0.185185 µM | drug 2 concentration 0.555556 µM | drug 2 concentration 1.66667 µM | drug 2 concentration 5 µM | drug 2 concentration 15 µM
drug 1 concentration 0.617284 µM | 87.8 | 90.5 | 86.2 | 89.6 | 84.4 | 10.2
drug 1 concentration 1.85185 µM | 96.41 | 92.4 | 98.6 | 89.4 | 83.1 | 20.2
drug 1 concentration 5.55556 µM | 80.9 | 83.1 | 85 | 85.7 | 75.1 | 6.28
drug 1 concentration 16.6667 µM | 56.7 | 55.8 | 51.9 | 45.6 | 40.1 | 0.623
drug 1 concentration 50 µM | 68.1 | 63.6 | 44.1 | 32.1 | 17.4 | 0.368

Cc1ccc(Nc2nccc(N(C)c3ccc4c(C)n(C)nc4c3)n2)cc1S(N)(=O)=O [Pazopanib] + CN(C)CCCN1c2ccccc2CCc2ccc(Cl)cc21 [Clomipramine (hydrochloride)]
cell viability [%]
Conditions | drug 2 concentration 0 µM | drug 2 concentration 0.123457 µM | drug 2 concentration 0.37037 µM | drug 2 concentration 1.11111 µM | drug 2 concentration 3.33333 µM | drug 2 concentration 10 µM
drug 1 concentration 0.617284 µM | 96.6 | 82 | 80.8 | 82.2 | 83.1 | 75.2
drug 1 concentration 1.85185 µM | 78.6 | 80.8 | 81.3 | 80.3 | 78.5 | 68.9
drug 1 concentration 5.55556 µM | 83 | 76.2 | 77.3 | 82.7 | 72.7 | 66.2
drug 1 concentration 16.6667 µM | 51 | 49.2 | 46.7 | 45.9 | 45.5 | 21.7
drug 1 concentration 50 µM | 54.1 | 48.8 | 49.2 | 42.6 | 41.6 | 12.1

Cc1ccc(Nc2nccc(N(C)c3ccc4c(C)n(C)nc4c3)n2)cc1S(N)(=O)=O [Pazopanib] + COc1cc2ncnc(Nc3ccc(F)c(Cl)c3)c2cc1NC(=O)/C=C/CN1CCCCC1 [Dacomitinib]
cell viability [%]
Conditions | drug 2 concentration 0 µM | drug 2 concentration 0.246914 µM | drug 2 concentration 0.740741 µM | drug 2 concentration 2.22222 µM | drug 2 concentration 6.66667 µM | drug 2 concentration 20 µM
drug 1 concentration 0.617284 µM | 108 | 116 | 100 | 94.5 | 38.3 | 0.658
drug 1 concentration 1.85185 µM | 110 | 105 | 110 | 94.3 | 34.6 | 0.634
drug 1 concentration 5.55556 µM | 77.3 | 78.6 | 77.1 | 70.5 | 34.7 | 0.641
drug 1 concentration 16.6667 µM | 56.6 | 54.5 | 57.8 | 62.6 | 23.9 | 0.454
drug 1 concentration 50 µM | 48.6 | 53.3 | 49.3 | 38.3 | 7.63 | 0.87

Cc1ccc(Nc2nccc(N(C)c3ccc4c(C)n(C)nc4c3)n2)cc1S(N)(=O)=O [Pazopanib] + COc1cc(Nc2ncc3c(n2)-c2ccc(Cl)cc2C(c2c(F)cccc2OC)=NC3)ccc1C(=O)O [Alisertib]
cell viability [%]
Conditions | drug 2 concentration 0 µM | drug 2 concentration 0.0617284 µM | drug 2 concentration 0.185185 µM | drug 2 concentration 0.555556 µM | drug 2 concentration 1.66667 µM | drug 2 concentration 5 µM
drug 1 concentration 0.617284 µM | 95.4 | 98.4 | 106 | 110 | 96.7 | 85.3
drug 1 concentration 1.85185 µM | 93.1 | 93.6 | 98.3 | 98.2 | 89 | 87.1
drug 1 concentration 5.55556 µM | 96.1 | 92.9 | 88.5 | 76.8 | 75 | 77.7
drug 1 concentration 16.6667 µM | 58.9 | 55.9 | 62 | 59.8 | 49.9 | 57.3
drug 1 concentration 50 µM | 63.2 | 73.1 | 70.5 | 61.2 | 43.9 | 23.7

Cc1ccc(Nc2nccc(N(C)c3ccc4c(C)n(C)nc4c3)n2)cc1S(N)(=O)=O [Pazopanib] + C[C@]12C=CC(=O)C=C1CC[C@@H]1[C@@H]2[C@@H](O)C[C@@]2(C)[C@H]1CC[C@]2(O)C(=O)CO [Prednisolone]
cell viability [%]
Conditions | drug 2 concentration 0 µM | drug 2 concentration 0.0617284 µM | drug 2 concentration 0.185185 µM | drug 2 concentration 0.555556 µM | drug 2 concentration 1.66667 µM | drug 2 concentration 5 µM
drug 1 concentration 0.617284 µM | 87.9 | 90.6 | 84.5 | 89.9 | 92.4 | 95.7
drug 1 concentration 1.85185 µM | 85.9 | 79.7 | 82.7 | 81.7 | 82.96 | 92
drug 1 concentration 5.55556 µM | 76 | 80.5 | 87 | 81.4 | 83.6 | 106
drug 1 concentration 16.6667 µM | 46.7 | 45.6 | 48.2 | 53.2 | 46.6 | 49.6
drug 1 concentration 50 µM | 61.9 | 60.3 | 58.2 | 55.8 | 60.3 | 57.2

Cc1ccc(Nc2nccc(N(C)c3ccc4c(C)n(C)nc4c3)n2)cc1S(N)(=O)=O [Pazopanib] + Cc1c(Cn2c(C)nc3c(C(=O)O)cc(N4CCOCC4)cc32)cccc1C(F)(F)F [GSK2636771]
cell viability [%]
Conditions | drug 2 concentration 0 µM | drug 2 concentration 0.0123457 µM | drug 2 concentration 0.037037 µM | drug 2 concentration 0.111111 µM | drug 2 concentration 0.333333 µM | drug 2 concentration 1 µM
drug 1 concentration 0.617284 µM | 101 | 93 | 90.5 | 94.7 | 92.7 | 88.9
drug 1 concentration 1.85185 µM | 98 | 86.9 | 94.3 | 93.4 | 89.1 | 90.7
drug 1 concentration 5.55556 µM | 72.8 | 82.8 | 88.1 | 84 | 91.2 | 81.6
drug 1 concentration 16.6667 µM | 46.7 | 49.5 | 52.2 | 47.6 | 50.5 | 50.9
drug 1 concentration 50 µM | 34 | 29.7 | 28.7 | 32.6 | 28.8 | 29.2

Structures can show the parent of a compound that is named as a salt. Several reference drugs read as weak here; read low effects with care.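 MCF7, a breast cancer cell line, was exposed to pairs of drugs across a grid of doses. Every plate had solvent-only (DMSO) wells as the untreated reference and a doxorubicin series as the total-kill control. No hit threshold is applied to these viability readings.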
